The results in this text go back to paper PMC9253107, “Engineering of ultraID, a compact and hyperactive enzyme for proximity-dependent biotinylation in living cells” (Communications Biology, 2022).

The chains behind the UniProt entries cited, without tags or fusion partners.
UniProt Q9UKV8: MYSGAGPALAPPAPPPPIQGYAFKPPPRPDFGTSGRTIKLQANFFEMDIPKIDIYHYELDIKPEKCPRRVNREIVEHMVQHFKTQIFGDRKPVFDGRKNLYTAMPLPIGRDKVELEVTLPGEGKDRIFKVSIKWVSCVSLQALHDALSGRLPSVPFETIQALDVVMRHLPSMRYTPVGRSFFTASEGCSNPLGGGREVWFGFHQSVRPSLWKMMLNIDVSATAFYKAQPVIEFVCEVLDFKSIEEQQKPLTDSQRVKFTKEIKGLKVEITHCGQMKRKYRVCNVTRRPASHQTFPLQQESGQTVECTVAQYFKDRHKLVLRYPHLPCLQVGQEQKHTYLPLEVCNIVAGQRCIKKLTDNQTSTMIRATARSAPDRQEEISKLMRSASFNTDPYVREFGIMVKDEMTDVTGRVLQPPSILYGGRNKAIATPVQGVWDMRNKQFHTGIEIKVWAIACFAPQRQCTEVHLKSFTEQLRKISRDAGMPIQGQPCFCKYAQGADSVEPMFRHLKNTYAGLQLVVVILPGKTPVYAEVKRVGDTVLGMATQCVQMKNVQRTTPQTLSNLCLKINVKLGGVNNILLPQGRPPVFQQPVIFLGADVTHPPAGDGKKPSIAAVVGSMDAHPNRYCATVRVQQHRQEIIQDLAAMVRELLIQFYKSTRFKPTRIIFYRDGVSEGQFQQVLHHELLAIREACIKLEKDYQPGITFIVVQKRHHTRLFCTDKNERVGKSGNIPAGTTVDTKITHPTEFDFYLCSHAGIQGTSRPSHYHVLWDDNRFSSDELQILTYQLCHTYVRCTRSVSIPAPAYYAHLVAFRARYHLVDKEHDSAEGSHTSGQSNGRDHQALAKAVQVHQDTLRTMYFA
UniProt A5YKK6: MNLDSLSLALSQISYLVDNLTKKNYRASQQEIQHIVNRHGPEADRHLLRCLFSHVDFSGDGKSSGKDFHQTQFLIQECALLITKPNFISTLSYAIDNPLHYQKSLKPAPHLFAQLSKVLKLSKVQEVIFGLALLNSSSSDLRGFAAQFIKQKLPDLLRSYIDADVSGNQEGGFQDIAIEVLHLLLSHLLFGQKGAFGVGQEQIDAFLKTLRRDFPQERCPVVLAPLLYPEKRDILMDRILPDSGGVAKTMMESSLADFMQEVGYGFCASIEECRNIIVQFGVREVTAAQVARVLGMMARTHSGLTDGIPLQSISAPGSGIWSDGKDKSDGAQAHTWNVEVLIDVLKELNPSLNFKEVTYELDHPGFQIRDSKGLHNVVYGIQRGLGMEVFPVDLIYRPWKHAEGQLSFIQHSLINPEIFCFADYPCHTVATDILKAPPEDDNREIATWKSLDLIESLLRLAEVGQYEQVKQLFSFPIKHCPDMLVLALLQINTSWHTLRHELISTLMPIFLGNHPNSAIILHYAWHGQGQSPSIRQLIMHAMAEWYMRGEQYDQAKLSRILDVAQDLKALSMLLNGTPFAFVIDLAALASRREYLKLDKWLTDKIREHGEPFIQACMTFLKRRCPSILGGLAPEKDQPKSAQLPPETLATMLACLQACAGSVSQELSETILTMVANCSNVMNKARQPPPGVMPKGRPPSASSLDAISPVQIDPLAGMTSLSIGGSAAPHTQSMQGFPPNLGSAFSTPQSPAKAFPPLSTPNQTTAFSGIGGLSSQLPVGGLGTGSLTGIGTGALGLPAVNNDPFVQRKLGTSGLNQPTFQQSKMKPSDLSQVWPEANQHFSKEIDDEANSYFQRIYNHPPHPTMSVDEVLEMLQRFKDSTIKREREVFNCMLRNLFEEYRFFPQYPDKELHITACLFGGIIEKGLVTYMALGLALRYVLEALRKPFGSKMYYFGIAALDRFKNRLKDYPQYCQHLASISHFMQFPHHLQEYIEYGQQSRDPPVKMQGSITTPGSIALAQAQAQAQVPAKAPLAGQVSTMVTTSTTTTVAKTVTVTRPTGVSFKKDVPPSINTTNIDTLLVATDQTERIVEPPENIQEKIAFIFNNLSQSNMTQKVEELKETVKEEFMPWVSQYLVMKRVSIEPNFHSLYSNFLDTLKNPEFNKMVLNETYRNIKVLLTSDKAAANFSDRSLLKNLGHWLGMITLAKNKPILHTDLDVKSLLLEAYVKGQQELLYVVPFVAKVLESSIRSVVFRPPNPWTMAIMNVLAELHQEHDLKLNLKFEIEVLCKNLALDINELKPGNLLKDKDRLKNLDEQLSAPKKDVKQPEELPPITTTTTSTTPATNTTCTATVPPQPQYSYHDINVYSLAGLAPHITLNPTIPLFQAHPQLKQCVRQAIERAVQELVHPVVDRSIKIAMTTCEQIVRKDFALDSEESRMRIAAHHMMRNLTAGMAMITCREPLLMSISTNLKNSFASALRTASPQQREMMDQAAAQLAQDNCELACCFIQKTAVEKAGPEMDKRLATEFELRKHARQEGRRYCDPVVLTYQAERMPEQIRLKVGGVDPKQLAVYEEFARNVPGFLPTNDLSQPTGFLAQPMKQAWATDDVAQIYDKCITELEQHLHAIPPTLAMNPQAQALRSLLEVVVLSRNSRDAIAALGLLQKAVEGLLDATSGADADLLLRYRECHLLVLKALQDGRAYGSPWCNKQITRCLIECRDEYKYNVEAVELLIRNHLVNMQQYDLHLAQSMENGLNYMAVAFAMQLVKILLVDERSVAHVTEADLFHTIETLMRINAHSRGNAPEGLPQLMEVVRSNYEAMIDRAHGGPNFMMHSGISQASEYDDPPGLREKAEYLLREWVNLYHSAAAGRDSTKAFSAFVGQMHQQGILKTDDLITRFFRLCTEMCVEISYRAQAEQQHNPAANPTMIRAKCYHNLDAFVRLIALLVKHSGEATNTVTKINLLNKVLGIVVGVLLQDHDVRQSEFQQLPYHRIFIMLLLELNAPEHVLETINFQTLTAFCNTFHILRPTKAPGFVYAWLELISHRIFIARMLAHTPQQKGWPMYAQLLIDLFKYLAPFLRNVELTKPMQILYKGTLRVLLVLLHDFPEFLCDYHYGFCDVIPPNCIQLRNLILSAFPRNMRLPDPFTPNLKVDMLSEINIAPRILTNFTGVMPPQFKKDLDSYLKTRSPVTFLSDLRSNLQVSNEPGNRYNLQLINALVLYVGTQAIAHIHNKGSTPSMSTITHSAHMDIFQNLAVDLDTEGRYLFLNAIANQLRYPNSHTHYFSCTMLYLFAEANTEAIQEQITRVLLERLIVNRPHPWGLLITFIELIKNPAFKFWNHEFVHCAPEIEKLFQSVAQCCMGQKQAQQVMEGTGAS
UniProt P51114: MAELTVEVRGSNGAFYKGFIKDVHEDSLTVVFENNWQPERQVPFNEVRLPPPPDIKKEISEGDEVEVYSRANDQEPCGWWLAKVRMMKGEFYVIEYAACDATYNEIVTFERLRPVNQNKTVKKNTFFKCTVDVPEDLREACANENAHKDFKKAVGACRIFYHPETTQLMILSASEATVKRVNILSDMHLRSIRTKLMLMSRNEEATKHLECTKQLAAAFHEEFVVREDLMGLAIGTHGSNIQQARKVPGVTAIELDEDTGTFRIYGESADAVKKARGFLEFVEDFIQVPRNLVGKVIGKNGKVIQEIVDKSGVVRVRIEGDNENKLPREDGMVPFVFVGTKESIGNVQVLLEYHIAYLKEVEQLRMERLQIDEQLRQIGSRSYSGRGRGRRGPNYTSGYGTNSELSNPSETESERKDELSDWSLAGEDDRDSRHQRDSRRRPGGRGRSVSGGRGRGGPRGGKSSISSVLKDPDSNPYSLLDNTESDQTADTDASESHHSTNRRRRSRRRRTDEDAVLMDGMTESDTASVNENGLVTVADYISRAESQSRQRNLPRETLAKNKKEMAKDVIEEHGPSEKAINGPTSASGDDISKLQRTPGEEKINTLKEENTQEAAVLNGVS
UniProt P11940: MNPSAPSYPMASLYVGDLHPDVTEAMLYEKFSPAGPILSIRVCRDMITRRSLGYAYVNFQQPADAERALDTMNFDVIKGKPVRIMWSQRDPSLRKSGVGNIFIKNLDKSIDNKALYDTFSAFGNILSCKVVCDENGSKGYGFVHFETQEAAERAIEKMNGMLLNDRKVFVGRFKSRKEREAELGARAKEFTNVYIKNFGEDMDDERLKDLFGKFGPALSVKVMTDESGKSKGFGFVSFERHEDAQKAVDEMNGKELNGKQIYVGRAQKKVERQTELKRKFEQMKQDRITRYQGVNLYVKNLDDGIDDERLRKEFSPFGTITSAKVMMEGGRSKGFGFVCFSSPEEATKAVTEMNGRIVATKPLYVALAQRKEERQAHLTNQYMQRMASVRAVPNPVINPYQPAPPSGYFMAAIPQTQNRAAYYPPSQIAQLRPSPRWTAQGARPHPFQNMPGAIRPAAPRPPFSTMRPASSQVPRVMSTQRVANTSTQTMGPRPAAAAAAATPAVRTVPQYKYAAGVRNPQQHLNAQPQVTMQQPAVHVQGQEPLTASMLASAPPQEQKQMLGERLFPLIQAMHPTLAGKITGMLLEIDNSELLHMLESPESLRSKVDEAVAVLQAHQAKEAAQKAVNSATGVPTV
UniProt Q8IZH2: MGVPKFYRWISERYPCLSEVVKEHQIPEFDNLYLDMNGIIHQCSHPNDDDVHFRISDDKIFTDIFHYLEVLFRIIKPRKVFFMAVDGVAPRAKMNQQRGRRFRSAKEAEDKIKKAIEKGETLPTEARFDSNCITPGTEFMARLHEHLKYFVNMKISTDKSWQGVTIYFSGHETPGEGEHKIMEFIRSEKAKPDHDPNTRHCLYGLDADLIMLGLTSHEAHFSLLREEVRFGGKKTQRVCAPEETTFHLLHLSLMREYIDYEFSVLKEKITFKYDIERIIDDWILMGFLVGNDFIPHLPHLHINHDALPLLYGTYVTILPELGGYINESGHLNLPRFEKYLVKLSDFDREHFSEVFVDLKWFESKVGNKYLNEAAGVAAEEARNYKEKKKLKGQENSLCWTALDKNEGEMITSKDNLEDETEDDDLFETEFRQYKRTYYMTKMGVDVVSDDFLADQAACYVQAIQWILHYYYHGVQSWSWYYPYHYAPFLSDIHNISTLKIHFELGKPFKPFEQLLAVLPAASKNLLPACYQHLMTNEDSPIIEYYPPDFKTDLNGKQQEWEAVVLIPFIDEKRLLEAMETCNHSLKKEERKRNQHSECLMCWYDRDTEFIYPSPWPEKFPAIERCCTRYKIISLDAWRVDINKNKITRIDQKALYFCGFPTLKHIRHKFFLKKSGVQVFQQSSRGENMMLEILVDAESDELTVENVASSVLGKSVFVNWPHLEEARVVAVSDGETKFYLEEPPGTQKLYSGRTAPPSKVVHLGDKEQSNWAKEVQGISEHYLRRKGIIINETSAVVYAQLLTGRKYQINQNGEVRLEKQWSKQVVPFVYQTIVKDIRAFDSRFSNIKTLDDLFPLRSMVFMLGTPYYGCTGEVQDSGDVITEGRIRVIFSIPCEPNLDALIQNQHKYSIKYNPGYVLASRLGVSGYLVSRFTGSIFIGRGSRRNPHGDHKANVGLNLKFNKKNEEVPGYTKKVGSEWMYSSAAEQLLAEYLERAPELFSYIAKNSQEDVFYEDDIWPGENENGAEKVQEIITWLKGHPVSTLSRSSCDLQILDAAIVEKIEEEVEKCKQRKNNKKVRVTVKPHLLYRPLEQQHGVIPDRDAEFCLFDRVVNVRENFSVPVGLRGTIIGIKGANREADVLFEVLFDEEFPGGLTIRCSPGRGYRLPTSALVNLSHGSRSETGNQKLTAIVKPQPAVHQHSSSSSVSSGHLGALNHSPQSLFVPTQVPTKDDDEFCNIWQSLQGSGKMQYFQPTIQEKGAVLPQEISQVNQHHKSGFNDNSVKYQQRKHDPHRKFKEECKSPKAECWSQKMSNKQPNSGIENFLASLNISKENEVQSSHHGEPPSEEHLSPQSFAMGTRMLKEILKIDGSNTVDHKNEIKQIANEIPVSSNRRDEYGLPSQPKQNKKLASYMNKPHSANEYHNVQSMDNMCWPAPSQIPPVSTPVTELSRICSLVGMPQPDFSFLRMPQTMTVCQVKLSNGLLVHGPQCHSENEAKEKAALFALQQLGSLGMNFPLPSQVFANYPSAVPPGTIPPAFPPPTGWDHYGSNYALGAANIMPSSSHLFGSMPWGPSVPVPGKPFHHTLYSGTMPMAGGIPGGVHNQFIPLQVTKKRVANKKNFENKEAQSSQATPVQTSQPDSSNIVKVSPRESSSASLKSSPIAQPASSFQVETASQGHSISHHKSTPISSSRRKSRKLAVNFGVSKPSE

For experiment [1], the target named is BioID-Ago2 (UniProt Q9UKV8). As to the kind of experiment: proximity labelling; BioID-Ago2 in doxycycline-induced HeLa 11ht line, 50 uM biotin overnight (added with doxycycline, 24 h); streptavidin pulldown, on-bead trypsin digestion, LC-MS/MS; enrichment (LFQ, proDA) against BioID-Rab11; four biological replicates.
In experiment [2] the target is ultraID-Ago2 (UniProt Q9UKV8). Description: proximity labelling; ultraID-Ago2 or TurboID-Ago2 in doxycycline-induced HeLa 11ht lines, 50 uM biotin for 10 min at 37 °C; streptavidin pulldown in RIPA buffer, on-bead trypsin digestion, LC-MS/MS; enrichment (LFQ, proDA) against the matching Rab11 fusion; four biological replicates.
The target of experiment [3] is TurboID-Ago2 (UniProt Q9UKV8). Description: proximity labelling; HeLa 11ht lines expressing TurboID or ultraID fusions of Ago2 or Rab11, no biotin added (background labeling); streptavidin pulldown, LC-MS/MS, abundance by iBAQ; n = 3 (Ago2 lines) or 4 (Rab11 lines).

Results are given in words; binding and its absence hold for the method and conditions named. In cells and extracts the contact can be indirect. These calls come from enrichment with a bait or labelling near it, and not all partners need be listed.

As to CNOT1 (from UniProt A5YKK6 1-2376), the binding result in experiment [1] and in experiment [2] was “binds” each time. Dicer (from UniProt Q9UPY3 1-1922): the binding entry in experiment [1] and in experiment [2] was “binds” throughout. As to FXR1 (from UniProt P51114 1-621), the binding entry in experiment [2] is “binds”. The same measure, in the same setting: to FXR2 (from UniProt P51116 1-673) belongs “binds”. For PABPC1 (from UniProt P11940 1-636), the binding entry in experiment [1] was “binds”. Take PUM1 (from UniProt Q14671 1-1186): in experiment [2], the binding entry is listed as “binds”.

TNRC6A (from UniProt Q8NDV7 1-1962): the binding result in experiment [3] is reported as “binds”. The same measure, in the same setting: to TNRC6B (from UniProt Q9UPQ9 1-1833) belongs “binds”. With XRN1 (from UniProt Q8IZH2 1-1706), the binding entry in experiment [1] and in experiment [2] was “binds” throughout.
